Structures are written as SMILES. Where “and” joins values, the source holds several entries; their conditions need not be identical. Equal values may be shown once. The list shows a part of the results. Single values are uncertain here, since repeats match poorly.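 HEK293T cells were given each compound shortly before transfection with a reporter in which red mCherry is followed by the SARS-CoV-2 frameshift element and then GFP in the −1 frame, so GFP appears only after frameshifting.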

The test system of the assay is HEK293T. Nature of the assay: percent viability (nuclei count) relative to control; higher = more viable cells. Particulars: 10 µM; 24 h.
As for `CC(=O)N[C@H](Cc1ccc2ccccc2c1)C(=O)N[C@H](Cc1ccc(Cl)cc1)C(=O)N[C@H](Cc1cccnc1)C(=O)N[C@@H](CO)C(=O)N[C@@H](Cc1ccc(O)cc1)C(=O)N[C@H](CCCNC(N)=O)C(=O)N[C@@H](CC(C)C)C(=O)N[C@@H](CCCNC(=N)N)C(=O)N1CCC[C@H]1C(=O)N[C@H](C)C(N)=O` [Cetrotide], the percent viability amounted to 306%.

`CC(=O)Nc1c(I)c(NC(C)=O)c(I)c(C(=O)O)c1I`: the percent viability came out at 254%.

Consider `COC(=O)Nc1nc2cc([S+]([O-])c3ccccc3)ccc2[nH]1` (stereo unspecified) [Oxfendazole], for which the percent viability is 114%.

Regarding `O=C(Nc1cccc(C2=NCCN2)c1)Nc1cccc(C2=NCCN2)c1` [imidocarb], the percent viability worked out at 218%.

Turning to `CN1CCN(C2=Nc3ccccc3Sc3ccc(Cl)cc32)CC1` [clotiapine], the percent viability was determined as 333%.

As for `O=S(O)CNc1ccc(S(=O)(=O)c2ccc(NCS(=O)O)cc2)cc1` [aldesulfone], the percent viability turned out to be 347%.

Turning to `CC(C)OC(=O)CCC/C=C\C[C@@H]1[C@@H](CC[C@@H](O)CCc2ccccc2)[C@H](O)C[C@@H]1O` [latanoprost], the percent viability worked out at 88.8%.

In the case of `O=C(CCBr)N1CCN(C(=O)CCBr)CC1` [pipobroman], the percent viability was 345%.

On to `COc1ccc(NS(=O)(=O)c2ccc(N)cc2)nn1` [sulfamethoxypyridazine], for which the percent viability turned out to be 375%.

Take `FC(F)(F)C(Cl)Br` (stereo unspecified) [halothane]: the percent viability came out at 132%.

Turning to `CCCC(CCC)C(=O)O` [valproic acid], the percent viability was 246% and 144%.

As to `OCc1ccccn1`, the percent viability came out at 76.7%.

Consider `Cn1c(=O)c2c(ncn2C)n(C)c1=O`, for which the percent viability is 380%.

For the molecule `O=C1CCC(N2C(=O)c3ccccc3C2=O)C(=O)N1` (stereo unspecified) [thalidomide], the percent viability is 321% and 173%.

Regarding `CC(C(=O)O)c1ccc2c(c1)Cc1ccccc1-2` (stereo unspecified) [cicloprofen], the percent viability is 236%.

As for `CC(Oc1ccccc1)C(=O)N[C@@H]1C(=O)N2[C@@H]1SC(C)(C)[C@@H]2C(=O)O` (stereo partly specified) [pheneticillin], the percent viability worked out at 288%.

As to `CN(C)C(=O)C(CCN1CCC(O)(c2ccc(Cl)cc2)CC1)(c1ccccc1)c1ccccc1` [loperamide], the percent viability is 339% and 343%.

Consider `CC(C)OC(=O)CCC/C=C\C[C@@H]1[C@@H](/C=C/[C@@H](O)COc2cccc(C(F)(F)F)c2)[C@H](O)C[C@@H]1O` [travoprost], for which the percent viability was 137% and 118%.

Consider `O=C(NCCNCC(O)COc1ccc(O)cc1)N1CCOCC1` (stereo unspecified) [Xamoterol hemifumarate], for which the percent viability came out at 236%.

Consider `COc1cc(C)c2c(Oc3cccc(C(F)(F)F)c3)c(OC)cc(NC(C)CCCN)c2n1` (stereo unspecified) [tafenoquine], for which the percent viability is 140%.

As for `C=C[C@H]1CN2CC[C@H]1C[C@H]2[C@H](O)c1ccnc2ccc(OC)cc12` [Aflukin], the percent viability stood at 256%.

Consider `CC(C)S(=O)(=O)n1c(N)nc2ccc(/C(=N/O)c3ccccc3)cc21` [enviroxime], for which the percent viability was 457%.

As to `Cc1ncc(C[n+]2csc(CCO)c2C)c(N)n1`, the percent viability came out at 343%.

As for `Oc1ncnc2[nH]ncc12`, the percent viability is 262%.

For the molecule `CC(C)C(=O)Oc1ccc(CO)cc1[C@H](CCN(C(C)C)C(C)C)c1ccccc1` [Fesoterodine], the percent viability was determined as 294%.

Take `O=C(NCCS(=O)(=O)O)c1cccs1` [taurosteine]: the percent viability is 276%.

The values above are taken from the supplement of paper PMC8256030.
